Source: article PMC4070083
These are yes or no findings as the source states them, for the method shown. Binding can be weak; no strength is given.

How the values were obtained:
[1] = molecular target: SlTCP21 (tomato (Solanum lycopersicum)) (UniProt G3BGW1); experiment: two-hybrid; matrix of all combinations; GAL4 BD baits (pDEST32) in yeast PJ69-4α mated with GAL4 AD preys (pDEST22) in PJ69-4a; growth on SD -Leu -Trp -Ade (-LTA) and -Leu -Trp -His (-LTH) with 5, 10 or 15 mM 3-AT; plates at 20°C, scored after 5 d; in triplicate
[2] = molecular target: SlTCP6 (tomato (Solanum lycopersicum)) (UniProt G3BGU6); experiment: as above

Substance | binding [1] | binding [2]
SlTCP12 (from UniProt A0A3Q7JKS5) | binds | binds
SlTCP13 (from UniProt G3BGV3) | binds | binds
